For four molecules, survivor count and T/C results are on record in PubChem BioAssay AID190 (DTP/NCI, 2004).

The list is a part of this screen's results and no random one: it gathers tests that were run many times, whatever their T/C, doses with no T/C, and many T/C values between a quarter and a half above the control. Other doses and runs of a compound stand elsewhere. T/C: endpoint of the treated group in % of that of the vehicle group. Some doses have a count of surviving animals in place of a T/C: the source files T/C as zero there, which appears to mark a toxic dose or a test without result, not a measured value. Some doses without a T/C left all or most animals alive at the check, yet need not have been tolerated: survival well below the control is almost never listed, so the zero probably covers shortened survival too. Survivors were counted at the toxicity check, usually on the fifth day, unless a day is given; later deaths do not show. Schedule codes are those of the source, taken here to give the interval after Q, in days (D) or hours (H), and the number of doses after X. Some entries were tested several times; the results are listed from low to high. For survival time, this PubChem deposit counts one and a half times the control or more as active, and values a quarter to a half above the control carry no call in these data; other NCI protocols may use other cut-offs. Some T/C values are followed by the survivors on the day toxicity was checked, most often the fifth; where none is given, no animal had died by that day.

The subject of the assay is AKR/Lw mice, AKR lymphoma ip, median survival T/C. As to the kind of experiment: NCI In Vivo Anticancer Drug Screen. Data for tumor model Lymphoma AKR (Transplanted) (intraperitoneal) in AKR/Lw mice. To be noted: T/C endpoint: median survival time, higher T/C = longer survival. How it is done: The antitumor activity of compounds was measured in mice bearing transplantable tumors. Survival or tumor size were measured and the results are expressed as the measurement made in the treated group (T) divided by the measurement made in the vehicle treated control group (C). The tumor model used in this assay is Lymphoma AKR (Transplanted) (intraperitoneal) in AKR/Lw mice

[1] abbreviates: dose: 400.0 mg/kg/injection, schedule: Q01DX001 (ip), vehicle: Klucel (hydroxypropylcellulose) (HPC).
The mark [2] stands for this setting: dose: 100.0 mg/kg/injection, schedule: Q04DX003 (ip), vehicle: Klucel (hydroxypropylcellulose) (HPC).
Where [3] appears, read: dose: 400.0 mg/kg/injection, schedule: Q01DX001 (ip), vehicle: saline.

With `NC(=O)c1[nH]nc(C2OC(CO)C(O)C2O)c1O` (stereo not given), the survivor count is, setting by setting: (dose: 0.12 mg/kg/injection, schedule: Q04DX003 (ip), vehicle: saline) 10 of 10; (dose: 0.15 mg/kg/injection, schedule: Q01DX009 (ip), vehicle: saline) 10 of 10; (dose: 0.3 mg/kg/injection, schedule: Q01DX009 (ip), vehicle: saline) 10 of 10; (dose: 0.6 mg/kg/injection, schedule: Q01DX009 (ip), vehicle: saline) 9 of 10; (dose: 1.25 mg/kg/injection, schedule: Q01DX009 (ip), vehicle: saline) 7 of 10; (dose: 2.0 mg/kg/injection, schedule: Q04DX003 (ip), vehicle: saline) 10 of 10. Also, the survivor count (dose: 2.5 mg/kg/injection, schedule: Q01DX009 (ip), vehicle: saline) is recorded as 7 of 10; the survivor count (dose: 4.0 mg/kg/injection, schedule: Q04DX003 (ip), vehicle: saline) is recorded as 9 of 10; the survivor count (dose: 5.0 mg/kg/injection, schedule: Q01DX009 (ip), vehicle: saline) is 6 of 10; the survivor count (dose: 8.0 mg/kg/injection, schedule: Q04DX003 (ip), vehicle: saline) was 10 of 10; the survivor count (dose: 10.0 mg/kg/injection, schedule: Q01DX009 (ip), vehicle: saline) was 6 of 10; the survivor count (dose: 16.0 mg/kg/injection, schedule: Q04DX003 (ip), vehicle: saline) is given as 8 of 10. In addition, where the note is “dose: 32.0 mg/kg/injection, schedule: Q04DX003 (ip), vehicle: saline”, the survivor count is 8 of 10. For the same molecule, the T/C (dose: 0.5 mg/kg/injection, schedule: Q04DX003 (ip), vehicle: saline) is 133 % of control.
For the molecule `CCCCC(C(=O)OCC)C(CCC1CCCCC1)(C(=O)OCC)C(=O)OCC` (stereo not given), the survivor count under setting [1] is 10 of 10.
`CC(=O)NNC(=O)c1ccccn1`: the T/C (dose: 12.5 mg/kg/injection, schedule: Q04DX003 (ip), vehicle: Klucel (hydroxypropylcellulose) (HPC)) is 134 % of control; the T/C under setting [2] is 96 and 115 % of control [8 of 10 alive]; the T/C (dose: 200.0 mg/kg/injection, schedule: Q04DX003 (ip), vehicle: other) is 136 % of control; the T/C under setting [3] was 125 % of control [9 of 10 alive]. The survivor count (dose: 100.0 mg/kg/injection, schedule: Q01DX009 (ip), vehicle: saline) is on record as 10 of 10; the survivor count under setting [2] was 6 of 10 and 8 of 10; the survivor count (dose: 100.0 mg/kg/injection, schedule: Q04DX003 (ip), vehicle: saline) is on record as 10 of 10; the survivor count (dose: 200.0 mg/kg/injection, schedule: Q01DX009 (ip), vehicle: Klucel (hydroxypropylcellulose) (HPC)) is 6 of 10 and 8 of 10; the survivor count (dose: 200.0 mg/kg/injection, schedule: Q04DX003 (ip), vehicle: saline) was 10 of 10; the survivor count (dose: 300.0 mg/kg/injection, schedule: Q01DX001 (ip), vehicle: Klucel (hydroxypropylcellulose) (HPC)) is given as 10 of 10. Besides, the survivor count by setting is: (dose: 300.0 mg/kg/injection, schedule: Q01DX009 (ip), vehicle: Klucel (hydroxypropylcellulose) (HPC)) 1 of 10; under setting [1], 5 of 10; under setting [3], 3 of 10; (dose: 400.0 mg/kg/injection, schedule: Q01DX009 (ip), vehicle: Klucel (hydroxypropylcellulose) (HPC)) 1 of 10; (dose: 400.0 mg/kg/injection, schedule: Q04DX003 (ip), vehicle: Klucel (hydroxypropylcellulose) (HPC)) 2 of 10; (dose: 400.0 mg/kg/injection, schedule: Q04DX003 (ip), vehicle: other) 2 of 10 and 10 of 10. Moreover, the survivor count (dose: 400.0 mg/kg/injection, schedule: Q04DX003 (ip), vehicle: saline) is 3 of 10 and 4 of 6; the survivor count (dose: 500.0 mg/kg/injection, schedule: Q01DX001 (ip), vehicle: Klucel (hydroxypropylcellulose) (HPC)) is on record as 0 of 10, 1 of 10, 2 of 10; the survivor count (dose: 600.0 mg/kg/injection, schedule: Q01DX001 (ip), vehicle: Klucel (hydroxypropylcellulose) (HPC)) is 0 of 10 and 6 of 10.
`O=NN(CCCl)C(=O)NC1CC2CCC1C2` (stereo not given): the T/C is, setting by setting: (dose: 1.2 mg/kg/injection, schedule: Q04DX004 (ip), vehicle: Klucel (hydroxypropylcellulose) (HPC)) 135 % of control [9 of 10 alive]; (dose: 2.0 mg/kg/injection, schedule: Q04DX008 (ip), vehicle: Klucel (hydroxypropylcellulose) (HPC)) 130 % of control; (dose: 2.5 mg/kg/injection, schedule: Q04DX004 (ip), vehicle: Klucel (hydroxypropylcellulose) (HPC)) 135 % of control; (dose: 3.5 mg/kg/injection, schedule: Q04DX008 (ip), vehicle: Klucel (hydroxypropylcellulose) (HPC)) 138 % of control; (dose: 5.0 mg/kg/injection, schedule: Q04DX004 (ip), vehicle: Klucel (hydroxypropylcellulose) (HPC)) 128 % of control; (dose: 5.0 mg/kg/injection, schedule: Q04DX004 (ip), vehicle: saline) 146 % of control. The T/C is, setting by setting: (dose: 5.0 mg/kg/injection, schedule: Q04DX008 (ip), vehicle: Klucel (hydroxypropylcellulose) (HPC)) 141 % of control; (dose: 10.0 mg/kg/injection, schedule: Q04DX004 (ip), vehicle: Klucel (hydroxypropylcellulose) (HPC)) 137 % of control; (dose: 10.0 mg/kg/injection, schedule: Q04DX004 (ip), vehicle: saline) 130 % of control; (dose: 10.0 mg/kg/injection, schedule: Q04DX008 (ip), vehicle: Klucel (hydroxypropylcellulose) (HPC)) 126 % of control; (dose: 20.0 mg/kg/injection, schedule: Q04DX004 (ip), vehicle: saline) 128 % of control; (dose: 20.0 mg/kg/injection, schedule: Q04DX008 (ip), vehicle: Klucel (hydroxypropylcellulose) (HPC)) 126 % of control. For the same molecule, the survivor count reads like this: (dose: 40.0 mg/kg/injection, schedule: Q04DX004 (ip), vehicle: Klucel (hydroxypropylcellulose) (HPC)) 10 of 10; (dose: 40.0 mg/kg/injection, schedule: Q04DX004 (ip), vehicle: saline) 10 of 10; (dose: 40.0 mg/kg/injection, schedule: Q04DX008 (ip), vehicle: Klucel (hydroxypropylcellulose) (HPC)) 9 of 10; (dose: 80.0 mg/kg/injection, schedule: Q04DX004 (ip), vehicle: saline) 10 of 10.
